For the assay, the target named is T1, asialo fetuin (UniProt P12763).
T1 sequence: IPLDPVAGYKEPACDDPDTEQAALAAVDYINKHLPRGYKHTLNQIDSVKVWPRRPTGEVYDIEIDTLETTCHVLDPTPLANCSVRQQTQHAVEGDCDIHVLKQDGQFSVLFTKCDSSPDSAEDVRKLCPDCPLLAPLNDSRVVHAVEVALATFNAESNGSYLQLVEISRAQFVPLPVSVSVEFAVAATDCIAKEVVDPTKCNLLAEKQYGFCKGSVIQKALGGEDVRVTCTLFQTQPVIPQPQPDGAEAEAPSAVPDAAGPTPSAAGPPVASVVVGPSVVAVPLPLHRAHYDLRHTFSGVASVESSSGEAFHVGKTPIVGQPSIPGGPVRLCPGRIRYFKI
Put plainly: ELISA; asialo-fetuin coated at 20 µg/ml (carbonate buffer pH 9.6, overnight); 5 µg/ml galectin-3 in 1% BSA in PBS without or with compound inhibitors K2/L2, 1 h, room temperature; detected with anti-galectin-3 antibody; both purified.

Sequences of proteins named here, by UniProt entry; tags and fusion partners are left off.
UniProt P17931: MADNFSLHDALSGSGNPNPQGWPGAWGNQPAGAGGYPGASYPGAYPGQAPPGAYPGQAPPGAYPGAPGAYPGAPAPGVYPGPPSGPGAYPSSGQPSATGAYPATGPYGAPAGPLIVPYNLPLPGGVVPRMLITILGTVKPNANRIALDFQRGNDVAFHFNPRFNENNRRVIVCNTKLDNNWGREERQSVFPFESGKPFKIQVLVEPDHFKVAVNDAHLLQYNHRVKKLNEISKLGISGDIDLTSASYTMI

These are yes or no findings as the source states them, for the method shown. Some entries that bind do so weakly or less than the wild type.

These results are taken from PMC12482042, “Targeting galectin-3 in cancer by novel and unique inhibitors of non-carbohydrate origin” (Molecular Medicine, 2025).

Regarding “Human recombinant galectin-3 (from UniProt P17931 1-250)”, the binding entry is “binds”.
